This is an account of results in publication PMC9675814, “DNA mechanical flexibility controls DNA potential to activate cGAS-mediated immune surveillance”.

Sequences of proteins named here, by UniProt entry; tags and fusion partners are left off.
UniProt Q8N884, whole entry: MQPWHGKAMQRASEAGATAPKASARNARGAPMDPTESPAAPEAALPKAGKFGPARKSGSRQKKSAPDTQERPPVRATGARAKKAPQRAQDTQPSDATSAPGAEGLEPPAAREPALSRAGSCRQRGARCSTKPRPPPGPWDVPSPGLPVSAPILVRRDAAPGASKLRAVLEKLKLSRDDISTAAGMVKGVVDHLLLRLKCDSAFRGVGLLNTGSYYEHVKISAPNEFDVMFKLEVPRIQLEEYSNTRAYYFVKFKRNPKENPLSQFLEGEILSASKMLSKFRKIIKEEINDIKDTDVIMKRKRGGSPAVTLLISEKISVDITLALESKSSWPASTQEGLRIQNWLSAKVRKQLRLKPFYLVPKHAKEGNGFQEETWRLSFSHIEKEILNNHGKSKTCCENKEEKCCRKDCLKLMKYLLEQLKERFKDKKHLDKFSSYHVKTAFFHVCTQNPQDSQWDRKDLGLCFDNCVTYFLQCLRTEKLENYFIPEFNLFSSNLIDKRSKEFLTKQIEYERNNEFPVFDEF

A weaker result is weaker than the reference pair of the same experiment. For some of these results: For at least one entry, the source does not settle the construct or the ends of the probe. For some of these results: At least one verdict rests on a figure or table, not on a statement of the authors.

For data set [1], the target named is hcGAS WT (Homo sapiens) (UniProt Q8N884). The experiment in a line: EMSA. The following applies: EMSA: 50 nM Cy3-DNA, 20 mM Tris-HCl pH 7.5, 150 mM NaCl, 37 C 30 min, 1.5% agarose, recombinant protein, residues 1-522, protein details: His (pET-28a, Ni purified). A general note: In EMSA bound probe runs differently from free probe, usually more slowly.
The target is the same in data set [2]. The experiment in a line: MARTFQ fluorescence quenching. The following applies: MARTFQ: 50 nM cGAS, DNA titration, 5 min; recombinant protein; residues 1-522; protein details: His (pET-28a, Ni purified); label: 5' Cy3 on F (EMSA).

With “AAAAAAAAAAAAAAAAAAAAAAAAAAAAAAAAAAAAAAAAAAAA (double strand) [pA:pT 44 bp]”, the binding result in the data set with hcGAS WT (Homo sapiens) [1] is listed as “binds more weakly”.
For the sequence “AGGGCTTTTCTGTATTTTCTCATAGACATTATTTATCAGTAATTGCAGCT (double strand) [seq1]”, in the data set with hcGAS WT (Homo sapiens) [1] (Kd shown only in figure), the binding result is on record as “binds”.
The same measure, in the same setting: under “CAAAAGTGACATCCACAGCAAGCTGGACAGGTAAATTGCCTCATACAATC (double strand) [seq9]” stands “binds”.
Same read-out and setting: the value for “CGACTATTTTTTAATTGATAGTTCTGAAGGCTCTTCTACTGATGACGAAC (double strand) [seq6]” was “binds”; that for “CTTCAACGCACCTTAAATCTATTCTTTTAAATTTTCCAGATTCTATTAAC (double strand) [seq4]” was “binds”.
The same measure, in the same setting: the value for “GGAATGGTTACCGAAAACGGGCTTCTTCTCATCCATATCCATAATTTCAT (double strand) [seq10]” was “binds”; that for “TGCTAATCCATATCATATAATCTAAAAACAAATCTAAAGGATCATCCATA (double strand) [seq8]” was “binds”; that for “TGTCTACTTGAAATTCTAATTCATATTTTTTTTGTTTGGATAGAATATCA (double strand) [seq2]” was “binds”.
“TGTTACGCATACACACAAGTACAGATTTGTATATAGTATTTCTTCTTCGT (double strand) [seq5]”: the binding result with hcGAS WT (Homo sapiens) [1] (Kd shown only in figure) was “binds”.
Still for that read-out and setting: the value for “TTTATCTCAAATTTGCGCTTTTTAGTCCAATCTCTCACAGTGACTATAGT (double strand) [seq3]” was “binds”; that for “TTTGTCAGGGTGTTCTTCGATTTTCCTTAGGTGCTTTTAGGACTTGTTTA (double strand) [seq7]” was “binds”.
As to “TTTTATTTATCGCCTCCTTTTTTTTTTTTTTTTTTTTTTTTTTCCGTGTTATCTCGAGTTAGT (double strand) [E8A26 63 bp]”, the binding result in the data set with hcGAS WT (Homo sapiens) [2] and with hcGAS WT (Homo sapiens) [1] (label: 5' Cy3 on F (EMSA)) was “binds more weakly” in each case.
